According to patent US20060223050A1, “Therapeutic platelets and methods” (The Regents of the University of California Office of …, priority 2003, published 2006):

Tested on: human platelets
Test: Loading of platelets with trehalose (anthrone quantification)
Assay type: cell-based
Conditions: for loading efficiency of trehalose: 50 mM external trehalose
Description: Washing of Platelets. Platelet concentrations were obtained from the Sacramento blood center or from volunteers in our laboratory. Platelet rich plasma was centrifuged for 8 minutes at 320×g to remove erythrocytes and leukocytes. The supernatant was pelleted and washed two times (480×g for 22 minutes, 480×g for 15 minutes) in buffer A (100 MM NaCl, 10 MM KCl, 10 mM EGTA, 10 mM imidazole, pH 6.8). Platelet counts were obtained on a Coulter counter T890 (Coulter, Inc., Miami, Fla.).
Loading of Platelets with Trehalose. Washed platelets in a concentration of 1-2 10^9 platelets/ml were incubated at various temperatures in the presence of 1-20 mg/ml trehalose. Incubation temperatures were chosen from 4° C. to 37° C. Incubation times were varied from 0.5 to 4 hours. After incubation the platelet solutions were washed in buffer A two times (by centrifugation at 14,000 RPM for 20 s in a table centrifuge). Platelet counts were obtained on a coulter counter. Platelets were pelleted (45 S at 14,000 RPM) and sugars were extracted from the pellet using 80% methanol. The samples were heated for 30 minutes at 80° C. The methanol was 10 evaporated with nitrogen, and the samples were kept dry and redissolved in H2O prior to analysis. The amount of trehalose in the platelets was quantified using the anthrone reaction (Umbreit et al., Mamometric and Biochemical Techniques, 5th Edition, 1972). Samples were redissolved in 3 ml H2O and 6 ml anthrone reagents (2 g anthrone dissolved in 10M sulfuric acid). After vortex mixing, the samples were placed in a boiling water bath for 3 minutes. Then the samples were cooled on ice and the absorbance was measured at 620 nm on a Perkin Elmer spectrophotometer. The amount of platelet associated trehalose was determined using a standard curve of trehalose.
Quantification of Trehalose and LYCH Concentration. Uptake was calculated for each sample as micrograms of trehalose or LYCH per platelet. The internal trehalose concentration was calculated assuming a platelet radius of 1.2 μm and by assuming that 50% of the platelet volume is taken up by the cytosol (rest is membranes). The loading efficiency was determined from the cytosolic trehalose or LYCH concentration and the concentration in the loading buffer.

SMILES: OC[C@H]1O[C@H](O[C@H]2O[C@H](CO)[C@@H](O)[C@H](O)[C@H]2O)[C@H](O)[C@@H](O)[C@@H]1O [trehalose]
- external trehalose giving highest internal trehalose concentration: 50 mM
- loading efficiency of trehalose (4 hour incubation, 22° C. and below): below 5%
- loading efficiency of trehalose (4 hours, 37° C.): 35%
- cytosolic concentration (loading efficiency 61%, external concentration 25 mM): 15 mM
- loading efficiency (time course at 37° C., 4 hours incubation (external 25 mM)): 61%
